Results of single-concentration screens

Source: ChEMBL document CHEMBL3988442, “University of Dundee, Small-Polar-MMV Screening Library” (2021).

The filed quantity is “Percent Effect” (%). The controls that fix the scale are not given in the record; negative values are as filed. The compounds are a random part of those screened. Two or more numbers in one place are separate tests of the same structure; such repeats can differ widely.

Mtb glucose medium: 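Phenotypic screen: M. tuberculosis growth, glucose 7H9 medium, 3 days; the read-out is not stated. Tested at 50 µM. Higher reads as more growth inhibition (inferred: compounds with an IC50 in retests scored well above the rest). About 69,000 compounds were tested under these conditions; 1.1% (about 760) showed 50% or more at least once.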
Mtb cholesterol medium: 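Growth of Mycobacterium tuberculosis over 4 days (cholesterol / DPPC medium with tyloxapol); the read-out is not stated. Concentration: 50 µM. Higher reads as more growth inhibition (inferred: compounds with an IC50 in retests scored well above the rest). About 69,000 compounds were tested under these conditions; 0.54% (about 370) showed 50% or more at least once.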

| compound | Mtb glucose medium | Mtb cholesterol medium |
|---|---|---|
| `CN(C)c1ccc(C(=O)N2CCN(Cc3cscn3)CC2)cn1` | 1.283% | -1.639% |
| `CCOCC1CN(Cc2ccco2)Cc2ccnn2C1` (configuration not stated) | -19.83% and -3.189% | -29.92% and -5.113% |
| `Fc1ccc(CN2Cc3nccn3CC(CN3CCOCC3)C2)cc1.O=C(O)C(F)(F)F.O=C(O)C(F)(F)F` (configuration not stated) | 16.99% | 2.702% |
| `CCN1CCN(C(=O)NCc2cccc(-c3cnn(C)c3)c2)CC1` | 5.809% | 2.898% |
| `CNC(=O)c1sc2ccccc2c1CC1CCCCN1Cc1ncc[nH]1` (configuration not stated) | -1.121% | -2.849% and 16.02% |
| `Cc1nnc(SCc2cccc(F)c2)n1CC(N)=O` | -19.65% | -8.88% |
| `CC(C)c1nnc2n1CC(CNCc1nc3ccccc3s1)CC2` (configuration not stated) | -11.56% | -28.71% |
| `CC(C)NC(=O)c1ccc2c(c1)C1(CCN(C(C)C)CC1)C(=O)N2.O=C(O)C(F)(F)F` | 0.8188% | -10.98% |
| `CSc1ccsc1C(=O)N1CCN(CC(C)(C)O)CC1` | 2.726% | 0.3376% |
| `O=C(NCC1CCN(c2ncccn2)CC1)c1cnccn1` | 28.91% | 6.871% |
| `O=C(C1CCOCC1)N1CCC(O)(Cn2ccc3ccncc32)CC1` | 11.17% | -9.344% |
| `CCC(Nc1ccc(Oc2ccc(C#N)cc2OC)cc1)C(N)=O` (configuration not stated) | 10.57% | 2.912% |
| `Cn1nccc1C(=O)N1CCCC1c1[nH]ncc1C(N)=O` (configuration not stated) | 9.903% | 7.6% |
| `Cn1ncc(NCc2cc(F)cc(F)c2)c(Cl)c1=O` | -7.492% | -39.35% |
| `Cn1ccc2ccc(C(=O)N3CCC[C@H]3C(=O)N3CCOCC3)cc21` | 11.05% | 4.444% |
| `O=C(c1ccccc1C(F)(F)F)N1C[C@@H](CN2CCOCC2)[C@@H](CO)C1` | -18.64% | -6.949% and -4.464% |
| `O=C(O)C(F)(F)F.O=C(O)C(F)(F)F.[H][C@@]12CN(Cc3ccc(F)cc3)C[C@]1([H])OCCN2Cc1c(C)noc1C` | -15.62% | -0.3111% |
| `NC(=O)c1nnn(-c2ccc(Cl)cc2)n1` | 51.2% | 31.09% |
| `CC(C)C(C)(O)CNc1cccc(F)c1C#N` (configuration not stated) | 6.11% | 1.862% |
| `O=C(O)C(F)(F)F.O=C(O)C(F)(F)F.O=C(O)C(F)(F)F.[H][C@@]12C[C@@H](OCc3cccc(C)n3)CN1CCN(c1ncccn1)C2` | -1.457% and 2.605% | 24.03% |
| `CC(=O)N1CC2(CCCC2)c2ccccc21` | 14.34% | 8.105% |
| `O=C(NCCN1CCOCC1)c1ccc(-c2ccccc2)[nH]c1=O` | -1.671% | -16.02% |
| `COc1cccc(CN2CC[C@H](NC(C)=O)[C@@H](O)CC2)c1F` | 10.76% | 9.962% |
| `Cc1n[nH]c(C2CN(Cc3nnc(C4CCC4)o3)CCO2)n1` (configuration not stated) | -11.98% | -14.48% |
| `CC(O)CNC(=O)c1nc(Cc2c(Cl)cccc2Cl)no1` (configuration not stated) | 11.78% and 5.886% | 3.36% |
| `C1CC(c2noc(C3CC3)n2)N(Cc2nnc(C3CC3)o2)C1` (configuration not stated) | -4.443% | -0.5385% |
| `CC(=O)Nc1ccc(S(=O)(=O)Nc2c(F)cccc2F)cc1` | 14.71% | -2.401% |
| `O=C(CNCCn1cccn1)NCC1(c2ccccc2)CCC1` | -4.294% | 2.906% |
| `COCCN1CCC(CNC(=O)C2(c3ccccc3)CCC2)C1` (configuration not stated) | 8.86% | -16.6% |
| `COc1ccccc1C1CNC(=O)c2nc(-c3c(C)n[nH]c3C)[nH]c2C1` (configuration not stated) | 3.171% | -15.8% |
| `COCC(=O)N1CC(c2n[nH]cc2C)C1` | 1.532% | -26.58% |
| `CN(C)CCCN(Cc1cnn(C)c1)Cc1ccco1.O=C(O)CC(O)(CC(=O)O)C(=O)O` | -20.08% | -3.314% and -6.952% |
| `COCCn1ccc(=O)c(OCC(=O)Nc2ccc(OC)cc2)c1C` | 13.46% | 8.579% |
| `CCC(=O)N1CCC2(COCc3c(C)nc(N(C)C)nc32)C1` (configuration not stated) | 10.83% | -9.141% and -6.637% |
| `COCCc1ncc(CN2C[C@H](C3CC3)[C@@H](N)C2)cn1` | 12.01% | 15.42% |
| `Cc1cnn(CC2CN(CCc3ccncc3)CCO2)c1` (configuration not stated) | -6.165% and 19.52% | 22.05% |
| `Cc1cc(-c2c(C)c(-c3cnn(C)c3)nc(N)c2C#N)oc1C` | -8.172% and 9.55% | 5.167% and -8.472% |
| `Cc1cnc(-c2nc(C3CCN(Cc4ccccc4Cl)CC3)no2)cn1` | 2.523% | 7.924% and 10% |
| `CCN(C(=O)CCc1ccc2c(c1)OCO2)C1CC(=O)NC1=O` (configuration not stated) | -7.723% | -19.94% |
| `CCn1ccc2ccnc(CC3CN(C(=O)c4ccc(F)cc4)C3)c21` | -16.94% | -14.05% |
| `CN1CC(=O)N(c2ccccc2)CC12CCN(Cc1nccn1C)C2.O=C(O)C(F)(F)F.O=C(O)C(F)(F)F` (configuration not stated) | -18.75% and -5.212% | -0.2448% and -8.514% |
| `CCN1CCn2c(C)cnc2C12CCN(C(=O)c1cscn1)CC2.O=C(O)C(F)(F)F.O=C(O)C(F)(F)F` | 7.375% | -10.11% and -2.625% |
| `CN(Cc1ccccc1)CC(O)Cn1cnc2ccc(Br)cc2c1=O` (configuration not stated) | 5.123% | 6.251% |
| `COc1ccc(C(=O)N2C[C@@H](C(=O)O)[C@H](c3ccccc3C)C2)c(O)c1` | -6.607% | -12.19% |
| `COC(=O)Cn1c(=O)nc2n1C(=O)N(c1ccccc1)C2` | -11.12% | -14.58% |
| `O=C(O)C(F)(F)F.O=C(O)C(F)(F)F.c1cnc(N2CCCC3(CCN(CC4CC4)C3)C2)nc1` (configuration not stated) | -4.625% | -15.69% |
| `CC(=O)NCCNC(=O)c1sccc1Br` | -1.39% and 20.59% | 8.718% |
| `O=C(c1ccoc1)N1CCc2c(COCc3ccncc3)cncc2C1` | -13.7% and -9.585% | -24.93% |
| `[H][C@@]12CCN(C(=O)OCc3ccccc3)C[C@@]1([H])OC(CO)C2` (some centres not stated) | 17.87% | 14.83% |
| `C[C@@H]1CN(c2ccc(C#N)cn2)CC[C@@]1(O)C1CCOCC1` | -8.323% | -6.409% |
| `O=C1N(Cc2cccc(F)c2F)CCCC1(O)CNCc1ccccc1` (configuration not stated) | -18.84% | -8.229% |

Repeated from the top, 3 entries:

compound,Mtb glucose medium,Mtb cholesterol medium
CN(C)c1ccc(C(=O)N2CCN(Cc3cscn3)CC2)cn1,1.283%,-1.639%
CCOCC1CN(Cc2ccco2)Cc2ccnn2C1 (configuration not stated),-19.83% and -3.189%,-29.92% and -5.113%
Fc1ccc(CN2Cc3nccn3CC(CN3CCOCC3)C2)cc1.O=C(O)C(F)(F)F.O=C(O)C(F)(F)F (configuration not stated),16.99%,2.702%